Data as given in PubChem BioAssay AID1159584 (Peter MacCallum Cancer Centre, 2016).

Aim: 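Genes whose loss is lethal only together with E-cadherin loss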 (primary screen)
System: human MCF10A breast epithelial cells, parental and CDH1-null
Knock-down reagent: siRNA against human genes
Read-out: 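ATP luminescence (CellTiter-Glo) viability per line relative to mean mock wells over all plates, and the ratio of CDH1-null to parental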
Scale: CDH1-null / parental viability ratio: higher = CDH1-null cells survive relatively better than parental
This is an unselected part of about 18,000 reagents tested. Further read-outs or replicates are left out here. Reagent sequences are not shown. Not given: the amount of reagent, the time to read-out.

Gene | CDH1-null / parental viability ratio
RAP2C (RAP2C, member of RAS oncogene family) | 0.93
CABIN1 (calcineurin binding protein 1) | 1.19
TMEM31 (transmembrane protein 31) | 1.24
SFRP2 (secreted frizzled related protein 2) | 1.1
TRIM58 (tripartite motif containing 58) | 0.97
TAS2R31 (taste 2 receptor member 31) | 1.27
LRRC8D (leucine rich repeat containing 8 VRAC subunit D) | 0.49
ARL3 (ARF like GTPase 3) | 1.32
CD24 (CD24 molecule) | 1.08
TRAF3 (TNF receptor associated factor 3) | 0.62
ADGRL2 (adhesion G protein-coupled receptor L2) | 0.79
DCC (DCC netrin 1 receptor) | 1.02
OTX1 (orthodenticle homeobox 1) | 0.8
CAMK1G (calcium/calmodulin dependent protein kinase IG) | 0.91
FAM216B (family with sequence similarity 216 member B) | 0.95
TUBGCP6 (tubulin gamma complex component 6) | 0.93
CBX4 (chromobox 4) | 1
TTL (tubulin tyrosine ligase) | 1.17
PDGFRL (platelet derived growth factor receptor like) | 1.15
PKP1 (plakophilin 1) | 1.27
AADAC (arylacetamide deacetylase) | 0.78
VTN (vitronectin) | 1.06
NR1I3 (nuclear receptor subfamily 1 group I member 3) | 1.21
TWSG1 (twisted gastrulation BMP signaling modulator 1) | 1.07
AMELY (amelogenin Y-linked) | 1.27
NTF4 (neurotrophin 4) | 0.99
CFHR5 (complement factor H related 5) | 1.54
ZNF467 (zinc finger protein 467) | 1.22
PELP1 (proline, glutamate and leucine rich protein 1) | 1.06
FBXO9 (F-box protein 9) | 0.92
BMP10 (bone morphogenetic protein 10) | 1.95
H1-0 (H1.0 linker histone) | 0.82
FOXD3 (forkhead box D3) | 1.06
CYP2C18 (cytochrome P450 family 2 subfamily C member 18) | 0.89
OAT (ornithine aminotransferase) | 0.99
SF3B6 (splicing factor 3b subunit 6) | 0.7
PRPS2 (phosphoribosyl pyrophosphate synthetase 2) | 0.97
SLC7A7 | 1
SAPCD2 (suppressor APC domain containing 2) | 1.17
RBBP9 (RB binding protein 9, serine hydrolase) | 0.62
ZNF462 (zinc finger protein 462) | 0.87
VASN (vasorin) | 1
PGAM2 (phosphoglycerate mutase 2) | 1.37
CD40LG (CD40 ligand) | 0.96
BST2 (bone marrow stromal cell antigen 2) | 1.16
IGF2-AS (IGF2 antisense RNA) | 0.87
FAM181A (family with sequence similarity 181 member A) | 1.2
TTC39A (tetratricopeptide repeat domain 39A) | 0.83
PURB (purine rich element binding protein B) | 0.92
SRF (serum response factor) | 1.22
SPRR2G (small proline rich protein 2G) | 0.97
SGSM1 (small G protein signaling modulator 1) | 1.01
TMEM200C (transmembrane protein 200C) | 0.91
ATP5MK (ATP synthase membrane subunit k) | 1
SUCNR1 (succinate receptor 1) | 0.8
CPXM1 (carboxypeptidase X, M14 family member 1) | 1.37
TMEM100 (transmembrane protein 100) | 0.82
CCDC83 (coiled-coil domain containing 83) | 0.85
MOXD1 (monooxygenase DBH like 1) | 0.99
GEMIN5 (gem nuclear organelle associated protein 5) | 0.76
PIM2 (Pim-2 proto-oncogene, serine/threonine kinase) | 1.06
GAS2L2 (growth arrest specific 2 like 2) | 0.86
KIF2A (kinesin family member 2A) | 0.88
SLC12A3 | 0.97
PCYT1B (phosphate cytidylyltransferase 1B, choline) | 0.95
NLRP10 (NLR family pyrin domain containing 10) | 1.12
UCN (urocortin) | 1.23
TIMP2 (TIMP metallopeptidase inhibitor 2) | 1

8 entries already listed, ordered by “CDH1-null / parental viability ratio”, lowest first:
Gene | CDH1-null / parental viability ratio
GEMIN5 (gem nuclear organelle associated protein 5) | 0.76
SUCNR1 (succinate receptor 1) | 0.8
TMEM100 (transmembrane protein 100) | 0.82
CCDC83 (coiled-coil domain containing 83) | 0.85
TMEM200C (transmembrane protein 200C) | 0.91
MOXD1 (monooxygenase DBH like 1) | 0.99
ATP5MK (ATP synthase membrane subunit k) | 1
CPXM1 (carboxypeptidase X, M14 family member 1) | 1.37
